No constants are given. Whether binding was seen depends on the method and setting. Binding seen in cells or lysates may run through a third protein. Some binding calls cover weakened binding; strength is not graded here.
Target: T1, M-Phase Phosphoprotein 9 (MPP9), endogenous (human (endogenous in hTERT RPE-1)) (UniProt Q99550)
T1 sequence: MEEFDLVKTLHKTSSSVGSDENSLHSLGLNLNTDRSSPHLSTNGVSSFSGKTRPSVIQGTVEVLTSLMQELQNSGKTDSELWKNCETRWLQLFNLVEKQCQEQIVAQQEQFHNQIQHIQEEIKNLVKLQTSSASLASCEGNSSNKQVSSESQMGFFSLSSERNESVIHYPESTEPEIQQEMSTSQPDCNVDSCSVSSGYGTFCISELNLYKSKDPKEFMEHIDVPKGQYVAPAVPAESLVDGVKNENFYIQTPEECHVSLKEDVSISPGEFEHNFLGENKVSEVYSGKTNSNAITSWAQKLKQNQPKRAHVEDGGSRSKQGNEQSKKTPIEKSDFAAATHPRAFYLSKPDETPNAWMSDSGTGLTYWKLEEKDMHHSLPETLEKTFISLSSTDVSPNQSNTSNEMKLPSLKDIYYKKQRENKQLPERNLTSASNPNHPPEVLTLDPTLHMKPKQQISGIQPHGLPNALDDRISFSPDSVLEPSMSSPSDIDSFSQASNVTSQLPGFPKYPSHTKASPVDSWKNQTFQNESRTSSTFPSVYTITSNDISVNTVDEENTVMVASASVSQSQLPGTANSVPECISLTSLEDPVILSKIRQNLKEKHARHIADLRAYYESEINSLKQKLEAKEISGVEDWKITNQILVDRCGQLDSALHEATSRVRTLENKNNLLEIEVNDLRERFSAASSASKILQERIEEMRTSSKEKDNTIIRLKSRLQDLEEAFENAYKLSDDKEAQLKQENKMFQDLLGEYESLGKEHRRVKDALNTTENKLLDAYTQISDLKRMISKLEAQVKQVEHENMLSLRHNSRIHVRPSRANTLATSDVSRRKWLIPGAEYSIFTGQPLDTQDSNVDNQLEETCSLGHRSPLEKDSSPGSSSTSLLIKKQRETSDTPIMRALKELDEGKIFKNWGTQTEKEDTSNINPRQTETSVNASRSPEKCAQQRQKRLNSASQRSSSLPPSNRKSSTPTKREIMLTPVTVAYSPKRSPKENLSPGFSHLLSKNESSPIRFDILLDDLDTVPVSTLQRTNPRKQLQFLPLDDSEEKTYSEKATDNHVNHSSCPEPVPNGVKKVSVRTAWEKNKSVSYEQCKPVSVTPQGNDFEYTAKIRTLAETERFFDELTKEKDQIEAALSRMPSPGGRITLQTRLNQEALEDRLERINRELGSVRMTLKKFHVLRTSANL
Assay: co-IP; lysates of hTERT RPE-1 cells (ELB buffer: 50 mM HEPES, 250 mM NaCl, 5 mM EDTA, 0.1% NP-40, pH 7.5), anti-MPP9 antibody, Protein G Sepharose, immunoblotting

B1: Kinesin Family Member 24 (KIF24) (protein, UniProt Q5T7B8 1-1368)
chain: MASWLYECLCEAELAQYYSHFTALGLQKIDELAKITMKDYSKLGVHDMNDRKRLFQLIKIIKIMQEEDKAVSIPERHLQTSSLRIKSQELRSGPRRQLNFDSPADNKDRNASNDGFEMCSLSDFSANEQKSTYLKVLEHMLPDDSQYHTKTGILNATAGDSYVQTEISTSLFSPNYLSAILGDCDIPIIQRISHVSGYNYGIPHSCIRQNTSEKQNPWTEMEKIRVCVRKRPLGMREVRRGEINIITVEDKETLLVHEKKEAVDLTQYILQHVFYFDEVFGEACTNQDVYMKTTHPLIQHIFNGGNATCFAYGQTGAGKTYTMIGTHENPGLYALAAKDIFRQLEVSQPRKHLFVWISFYEIYCGQLYDLLNRRKRLFAREDSKHMVQIVGLQELQVDSVELLLEVILKGSKERSTGATGVNADSSRSHAVIQIQIKDSAKRTFGRISFIDLAGSERAADARDSDRQTKMEGAEINQSLLALKECIRALDQEHTHTPFRQSKLTQVLKDSFIGNAKTCMIANISPSHVATEHTLNTLRYADRVKELKKGIKCCTSVTSRNRTSGNSSPKRIQSSPGALSEDKCSPKKVKLGFQQSLTVAAPGSTRGKVHPLTSHPPNIPFTSAPKVSGKRGGSRGSPSQEWVIHASPVKGTVRSGHVAKKKPEESAPLCSEKNRMGNKTVLGWESRASGPGEGLVRGKLSTKCKKVQTVQPVQKQLVSRVELSFGNAHHRAEYSQDSQRGTPARPASEAWTNIPPHQKEREEHLRFYHQQFQQPPLLQQKLKYQPLKRSLRQYRPPEGQLTNETPPLFHSYSENHDGAQVEELDDSDFSEDSFSHISSQRATKQRNTLENSEDSFFLHQTWGQGPEKQVAERQQSLFSSPRTGDKKDLTKSWVDSRDPINHRRAALDHSCSPSKGPVDWSRENSTSSGPSPRDSLAEKPYCSQVDFIYRQERGGGSSFDLRKDASQSEVSGENEGNLPSPEEDGFTISLSHVAVPGSPDQRDTVTTPLREVSADGPIQVTSTVKNGHAVPGEDPRGQLGTHAEYASGLMSPLTMSLLENPDNEGSPPSEQLVQDGATHSLVAESTGGPVVSHTVPSGDQEAALPVSSATRHLWLSSSPPDNKPGGDLPALSPSPIRQHPADKLPSREADLGEACQSRETVLFSHEHMGSEQYDADAEETGLDGSWGFPGKPFTTIHMGVPHSGPTLTPRTGSSDVADQLWAQERKHPTRLGWQEFGLSTDPIKLPCNSENVTWLKPRPISRCLARPSSPLVPSCSPKTAGTLRQPTLEQAQQVVIRAHQEQLDEMAELGFKEETLMSQLASNDFEDFVTQLDEIMVLKSKCIQSLRSQLQLYLTCHGPTAAPEGTVPS
For B1, the binding was “binds”.
